Source: PubChem BioAssay AID588590 (National Center for Advancing Translational Sciences (NCATS), 2011)
About 4,000 (1%) of roughly 390,000 compounds were called active. The inconclusive results got no clear call from the source; some entries with a clear call stand among them for comparison. Calls come from the whole dose curve; as a rule, active = well fitted inhibition curve with a large enough effect; inconclusive = small, poorly fitted or top-dose-only effect, or another doubt; inactive = no such curve, though single readings can be large or run the other way. A potency beside an inconclusive call is a rough fit, not a confirmed value.

Protein sequences, listed by entry. Tags and fused reporters are not part of them. Lines headed by an entry give the natural chain unless they say otherwise; changes in a name come on top.
UniProt Q9UNA4: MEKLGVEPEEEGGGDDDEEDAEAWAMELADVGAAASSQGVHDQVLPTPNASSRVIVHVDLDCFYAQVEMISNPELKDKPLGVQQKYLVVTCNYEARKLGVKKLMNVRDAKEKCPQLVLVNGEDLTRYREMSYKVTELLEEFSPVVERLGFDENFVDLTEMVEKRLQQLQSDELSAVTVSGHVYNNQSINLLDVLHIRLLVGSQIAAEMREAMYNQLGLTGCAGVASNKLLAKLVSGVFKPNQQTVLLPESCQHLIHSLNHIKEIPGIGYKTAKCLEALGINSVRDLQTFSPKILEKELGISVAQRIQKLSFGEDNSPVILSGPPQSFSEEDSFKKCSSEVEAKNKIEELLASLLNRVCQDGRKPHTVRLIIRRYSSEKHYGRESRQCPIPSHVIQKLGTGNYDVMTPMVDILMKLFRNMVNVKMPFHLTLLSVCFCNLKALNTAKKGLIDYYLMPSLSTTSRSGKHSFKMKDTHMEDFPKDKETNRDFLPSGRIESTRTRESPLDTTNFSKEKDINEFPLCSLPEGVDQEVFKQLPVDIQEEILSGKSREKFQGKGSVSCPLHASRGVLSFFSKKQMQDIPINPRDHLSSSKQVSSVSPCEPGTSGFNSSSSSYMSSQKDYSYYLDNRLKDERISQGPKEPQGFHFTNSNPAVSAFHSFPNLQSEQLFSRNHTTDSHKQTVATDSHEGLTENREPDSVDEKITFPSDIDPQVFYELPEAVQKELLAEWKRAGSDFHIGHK

molecular target: DNA polymerase iota (Homo sapiens) (UniProt Q9UNA4); assay: qHTS for Inhibitors of Polymerase Iota; details: Pol iota fluorescent replication assay, 10 min; series mostly up to 115 µM; activity, negative = inhibition: at the top concentration
How it was run: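 Fluorescent replication assay read twice, at 0 min and 10 min after adding 50 nM (final) substrate. Enzyme (10 nM) and compounds were first incubated 15 min at room temperature; enzyme-free buffer wells were negative controls.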
Potency is the fitted concentration of half-maximal effect.

| Structure (SMILES) | Potency | activity, negative = inhibition |
| --- | --- | --- |
| COc1ccc(CC2=C(O)c3ccccc3C(=O)C2=O)cc1 | inconclusive: 22.4 µM [inhibitor, partial curve] |  |
| Cc1snc(S(=O)(=O)/C(C#N)=N\Nc2ccccc2)c1C#N | inconclusive: 39.8 µM [inhibitor, single point] |  |
| COc1ccc(Cl)cc1NC(=O)CCC(=O)N1CCOc2ccccc21 |  | inactive: -2.7% |
| COc1ccc(C(=O)C2C(=O)C(=O)N(Cc3ccco3)C2c2cccs2)cc1 (stereo not drawn) | inconclusive: 39.8 µM [inhibitor, partial curve, poor fit] |  |
| CC1N=C(N)C(c2nc3ccccc3n2C)=C1O (stereo not drawn) | inconclusive: 89.1 µM [inhibitor, single point] |  |
| Cc1cc(-c2csc(N)n2)c(C)n1Cc1ccco1 | inconclusive: 2.51 µM [inhibitor, full curve, poor fit] |  |
| COC(=O)Nc1ccc(S(=O)(=O)N2CCC(C(=O)N3CCC(C)CC3)CC2)cc1 |  | inactive: 71.1% |
| Cc1nnc2c(Nc3cccc(O)c3)nc3ccccc3n12 | inconclusive: 79.4 µM [inhibitor, partial curve, poor fit] |  |
| Nc1c(N2CCCC2)c2ccccc2oc1=O | inconclusive: 89.1 µM [inhibitor, single point] |  |
| O=C(NNc1ccc(Cl)cc1)c1sccc1Cl | inconclusive: 8.91 µM [inhibitor, full curve, poor fit] |  |
| COc1ccccc1NC(=O)Nc1ccc(NC(=O)c2ccccc2O)cc1 | inconclusive: 10 µM [inhibitor, full curve, poor fit] |  |
| COc1cccc(NC(=O)CCc2nnc3ccc(NCc4ccco4)nn23)c1 | inconclusive: 56.2 µM [inhibitor, partial curve, poor fit] |  |
| COC(=O)c1c(NC(=O)c2ccc(Br)s2)sc2c1CCC2 | inconclusive: 20 µM [inhibitor, full curve, poor fit] |  |
| O=C(N/N=C/c1ccc(OCC(=O)N2CCCCC2)cc1)c1ccccc1O |  | inactive: 11.1% |
| COc1cccc(C(O)c2nccn2Cc2ccccc2)c1OC (stereo not drawn) | inconclusive: 0.708 µM [inhibitor, full curve, poor fit] |  |
| Cn1c(SCC(=O)Nc2ccc3nc(SCC(=O)NC4CC4)sc3c2)nnc1-c1ccccc1 | inconclusive: 89.1 µM [inhibitor, single point] |  |
| O=C(O)c1ccccc1-n1cccc1C(=O)O | inconclusive: 44.7 µM [inhibitor, partial curve] |  |
| Cc1ccccc1NC(=O)CSc1nc2[nH]c(=O)cc(O)c2s1 | inconclusive: 17.8 µM [inhibitor, partial curve, poor fit] |  |
| CCC(CO)Oc1cc(NC(=O)c2cccc(F)c2)c2ncn(C(C)C)c2c1 (stereo not drawn) | inconclusive: 25.1 µM [inhibitor, full curve, poor fit] |  |
| CNC(=O)c1nnsc1S(=O)(=O)c1ccc(Cl)cc1 | inconclusive: 25.1 µM [inhibitor, single point] |  |
| O=C(Nc1ccc(OC(F)(F)F)cc1)c1ccc2nc[nH]c2c1 | inconclusive: 17.8 µM [inhibitor, single point] |  |
| CN(C)C1CCN(Cc2cc(COCc3ccccc3)c3cccnc3c2O)C1 (stereo not drawn) |  | inactive: 129% |
| COC(=O)c1cc(C)sc1NC(=O)C1CC=CCC1C(=O)O (stereo not drawn) | inconclusive: 112 µM [inhibitor, single point] |  |

Compounds listed so far that contain a Cl atom, in the order listed:

| Structure (SMILES) | Potency | activity, negative = inhibition |
| --- | --- | --- |
| COc1ccc(Cl)cc1NC(=O)CCC(=O)N1CCOc2ccccc21 |  | inactive: -2.7% |
| O=C(NNc1ccc(Cl)cc1)c1sccc1Cl | inconclusive: 8.91 µM [inhibitor, full curve, poor fit] |  |
| CNC(=O)c1nnsc1S(=O)(=O)c1ccc(Cl)cc1 | inconclusive: 25.1 µM [inhibitor, single point] |  |

(continued)

| Structure (SMILES) | Potency | activity, negative = inhibition |
| --- | --- | --- |
| O=C1/C(=C/c2ccco2)SC(=S)N1c1cccnc1 | inconclusive: 2.51 µM [inhibitor, full curve, poor fit] |  |
| COc1cccc(C(=O)Nc2ccc3c(c2)C(=O)c2ccccc2C3=O)c1 | inconclusive: 15.8 µM [inhibitor, full curve, poor fit] |  |
| CC1C(=O)Nc2ccc(S(=O)(=O)NCc3ccc(Cl)cc3)cc2NC1=O (stereo not drawn) | inconclusive: 28.2 µM [inhibitor, partial curve, poor fit] |  |
| CC(=O)N1CCN(c2ccc(OC[C@@H]3CO[C@@](Cn4ccnc4)(c4ccc(Cl)cc4Cl)O3)cc2)CC1 | inactive |  |
| Cc1c(C(=O)Nc2ccncc2)sc2nc(-c3ccc(F)cc3)cn12 | inconclusive: 79.4 µM [inhibitor, partial curve, poor fit] |  |
| COc1cccc(Nc2nc3ccc(C(=O)c4ccccc4)cc3n3cnnc23)c1 | inconclusive: 2.24 µM [inhibitor, full curve, poor fit] |  |
| CC1CCCC(NC(=O)COC(=O)/C=C/c2ccco2)C1C (stereo not drawn) | active: 70.8 µM |  |
| CCOc1ccccc1C(=O)NCCc1cnc[nH]1 |  | inactive: 11.3% |
| CC(=O)Nc1cc(NC(C)=O)cc(C(=O)OCC(=O)c2ccc3c(c2)NC(=O)CO3)c1 | inconclusive: 14.1 µM [inhibitor, partial curve, poor fit] |  |
| Cc1nnc(SCC2=C(C(=O)O)N3C(=O)C(NC(=O)Cn4nc(C(F)F)cc4C)C3SC2)s1 (stereo not drawn) | active: 15.8 µM |  |
| COc1ccc(OC)c(CCNC(=O)c2c(C)nn(-c3ccc(F)cc3)c2-n2cccc2)c1 |  | inactive: 24.3% |
| CCOC(=O)c1cnn(-c2ccccc2)c1NC(=O)CSc1nnc(-c2cccs2)n1CC | inconclusive: 112 µM [inhibitor, partial curve, poor fit] |  |
| COc1ccc(Cn2nnc(C(=O)Nc3cc(OC)ccc3OC)c2N)cc1 |  | inactive: 23.4% |
| O=C(CSc1nc2ccc(S(=O)(=O)N3CCOCC3)cc2[nH]1)N1CCOCC1 |  | inactive: -13.1% |
| CC(=O)N(Cc1ccc(F)cc1)C1=C(NCCc2ccccc2)C(=O)c2ccccc2C1=O | inconclusive: 12.6 µM [inhibitor, full curve, poor fit] |  |
| COc1ccc(C(=O)NCCc2sc(-c3ccc(Cl)cc3)nc2C)c(OC)c1 |  | inactive: 10.2% |
| COc1ccc(C)cc1NC(=O)NCc1ccc2c(c1)CCN2C(=O)c1ccccc1 |  | inactive: -8.41% |
| Cc1ccc(S(=O)(=O)N2C(=O)c3cccc4cccc2c34)cc1 | inconclusive: 25.1 µM [inhibitor, partial curve, poor fit] |  |
| CCCCNC(=O)CC1N=C2c3ccccc3N=C(SCC(=O)Nc3cccc(OC)c3)N2C1=O (stereo not drawn) |  | inactive: -0.32% |
| COc1ccc(NS(=O)(=O)N2CCCCC2)cc1 |  | inactive: 68% |
| CC(=C\c1ccco1)/C=C1/SC(=S)N(CC(=O)O)C1=O | inconclusive: 20 µM [inhibitor, full curve] |  |
| CCOc1ccc(C2NC(=O)C(C#N)=C(S)N2c2ccc(OC)cc2)cc1OC (stereo not drawn) | inconclusive: 28.2 µM [inhibitor, single point] |  |
| Cc1ccc(CSc2nc3c(c(=O)[nH]c(=O)n3C)n2CCC(C)C)cc1 | inconclusive: 11.2 µM [inhibitor, partial curve, poor fit] |  |

| Structure (SMILES) | Potency | activity, negative = inhibition |
| --- | --- | --- |
| O=C(/C=C/c1ccccc1)Nc1cccc(S(=O)(=O)Nc2ccccc2F)c1 |  | inactive: -6.26% |
| C=CCOc1ccc2cccc(/C=N/NC(=O)c3cc4cc([N+](=O)[O-])ccc4s3)c2c1 |  | inactive: 2.62% |
| CN(C)c1ccc(/C=C/c2ccnc3c(-c4ccccc4)cccc23)cc1 |  | inactive: -6.33% |
| Cc1cccc2c(/C=C/c3ccc(N(C)C)cc3)ccnc12 | inconclusive: 3.55 µM [inhibitor, full curve, poor fit] |  |
| Cc1cccc(C(=O)NCCc2n[nH]c(=S)n2C)c1 | inconclusive: 100 µM [inhibitor, partial curve, poor fit] |  |
| CC(C)=C[C@@H]1C[C@H](C)[C@H]2CC[C@H](C)c3c(O)c(O)c(C)c1c32 | inconclusive: 14.1 µM [inhibitor, partial curve, poor fit] |  |
| Nc1nnnn1/N=C/c1cccc(Br)c1 | inconclusive: 89.1 µM [inhibitor, single point] |  |
| CCOc1ccccc1C(=O)N[C@H](C(=O)OCC(=O)Nc1nnc(-c2ccccc2)o1)C(C)C |  | inactive: 87.4% |
| CN(CC(=O)O)S(=O)(=O)c1cccs1 | active: 89.1 µM |  |
| O=C(CSc1nc2ncccc2[nH]1)NCc1ccco1 | inconclusive: 28.2 µM [inhibitor, full curve] |  |
| O=C(N/N=C\C=C\c1ccc([N+](=O)[O-])o1)c1cccs1 | active: 5.01 µM |  |
| Cc1ccc(NC(=O)CSc2nc(-c3cccs3)nc3cc(=O)[nH]n23)cc1 | inconclusive: 89.1 µM [inhibitor, single point] |  |
| CSC1=NSC2=NC(=O)/C(=C\c3ccc(OC(=O)c4ccco4)cc3)C(=N)N12 | inconclusive: 5.01 µM [inhibitor, partial curve, poor fit] |  |
| COc1cc2c(cc1OC)C1=C(C#N)COCN1CC2 | inconclusive: 8.91 µM [inhibitor, partial curve, poor fit] |  |
| CCN(CC)c1ccc(C=C2C(=O)OC(c3ccccc3)OC2=O)cc1 (stereo not drawn) |  | inactive: 34% |
| CC1=C(C(=O)OCc2ccccc2)C(c2ccc(Cl)cc2Cl)NC(=O)N1CCCC(=O)O (stereo not drawn) | inconclusive: 12.6 µM [inhibitor, partial curve] |  |
| COc1cc(/C=N/NC(=O)c2ccccc2NS(=O)(=O)c2cccs2)ccc1O | inconclusive: 70.8 µM [inhibitor, partial curve] |  |
| CCOC(=O)c1c(-c2cccc([N+](=O)[O-])c2)csc1NC(=O)C1CC1 | inconclusive: 15.8 µM [inhibitor, partial curve, poor fit] |  |
| Cc1cc(Cl)ccc1OCC(=O)Nc1c(Cl)ccc2nsnc12 |  | inactive: -17.5% |
| O=C(NCc1cccs1)c1ccc(Cn2c(SCc3ccccc3)nc3cccnc32)cc1 | inconclusive: 89.1 µM [inhibitor, single point] |  |
| COc1ccc(Cn2c(SCC(=O)NCc3ccc(Cl)cc3)nc3ccsc3c2=O)cc1 |  | inactive: 29.3% |
| Cc1cccc(OCC(=O)N/N=C/c2sc(=O)n(Cc3cccc(C(=O)O)c3)c2Cl)c1 |  | inactive: 1.36% |
